The other results are listed elsewhere or left out.
compound: CNCc1ccc(-c2[nH]c3cc(F)cc4c3c2CCNC4=O)cc1 [rucaparib]; test: log2 fold change, soluble protein after heating vs DMSO (PISA); higher = thermal stabilisation; K562 cells, 10 uM, 30 min; active = over 0.2 and 3.5 SD of the protein, either way, in both replicates (recomputed)
In short: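 K562 cells (2×10^6 cells/mL) were treated with 10 μM compound for 30 min, and aliquots were heated for 3 min over 48°C-58°C. Pooled aliquots were extracted in PBS with 0.5% NP-40 at 4°C, and the supernatant after 21,000xg for 90 min was measured by TMTpro 16plex LC-MS/MS with channel sums equalised. Reported thermal stability, relative to control samples and from duplicates, is a log2 fold change.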

Amino acid sequences for entries named in this document (tags omitted). A change or cut given only in a name is not applied to a line headed by its entry.
UniProt Q9Y2G5: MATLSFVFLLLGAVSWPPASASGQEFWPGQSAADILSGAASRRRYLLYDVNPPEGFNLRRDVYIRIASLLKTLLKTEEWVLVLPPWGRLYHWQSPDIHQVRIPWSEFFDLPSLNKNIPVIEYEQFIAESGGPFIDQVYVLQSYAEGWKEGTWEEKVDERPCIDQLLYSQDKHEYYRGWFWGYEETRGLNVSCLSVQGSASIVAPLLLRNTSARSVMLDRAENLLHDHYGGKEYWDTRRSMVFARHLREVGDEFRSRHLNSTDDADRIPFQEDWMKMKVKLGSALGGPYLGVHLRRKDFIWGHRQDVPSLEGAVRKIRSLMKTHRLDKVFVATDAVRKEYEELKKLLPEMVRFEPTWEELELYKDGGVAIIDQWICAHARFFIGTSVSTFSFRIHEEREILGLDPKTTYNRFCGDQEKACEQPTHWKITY
UniProt P62937, whole entry, looked up: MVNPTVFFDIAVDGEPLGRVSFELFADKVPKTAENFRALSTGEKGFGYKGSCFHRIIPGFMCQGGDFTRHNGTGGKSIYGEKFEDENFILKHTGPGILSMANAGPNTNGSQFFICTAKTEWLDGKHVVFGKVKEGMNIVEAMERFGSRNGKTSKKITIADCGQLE
UniProt O75688: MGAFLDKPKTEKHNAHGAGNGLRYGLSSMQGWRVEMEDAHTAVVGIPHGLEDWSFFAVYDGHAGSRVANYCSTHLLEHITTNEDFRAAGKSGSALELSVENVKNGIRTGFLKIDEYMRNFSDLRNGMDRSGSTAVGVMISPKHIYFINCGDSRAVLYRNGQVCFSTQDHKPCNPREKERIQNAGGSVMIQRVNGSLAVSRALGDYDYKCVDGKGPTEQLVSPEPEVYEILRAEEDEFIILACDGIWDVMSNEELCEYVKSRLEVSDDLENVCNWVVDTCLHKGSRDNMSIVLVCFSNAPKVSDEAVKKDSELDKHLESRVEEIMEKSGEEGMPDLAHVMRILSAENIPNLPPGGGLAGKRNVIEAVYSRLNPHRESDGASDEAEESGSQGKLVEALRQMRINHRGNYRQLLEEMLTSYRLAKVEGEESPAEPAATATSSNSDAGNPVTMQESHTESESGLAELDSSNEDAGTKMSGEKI
UniProt O43314: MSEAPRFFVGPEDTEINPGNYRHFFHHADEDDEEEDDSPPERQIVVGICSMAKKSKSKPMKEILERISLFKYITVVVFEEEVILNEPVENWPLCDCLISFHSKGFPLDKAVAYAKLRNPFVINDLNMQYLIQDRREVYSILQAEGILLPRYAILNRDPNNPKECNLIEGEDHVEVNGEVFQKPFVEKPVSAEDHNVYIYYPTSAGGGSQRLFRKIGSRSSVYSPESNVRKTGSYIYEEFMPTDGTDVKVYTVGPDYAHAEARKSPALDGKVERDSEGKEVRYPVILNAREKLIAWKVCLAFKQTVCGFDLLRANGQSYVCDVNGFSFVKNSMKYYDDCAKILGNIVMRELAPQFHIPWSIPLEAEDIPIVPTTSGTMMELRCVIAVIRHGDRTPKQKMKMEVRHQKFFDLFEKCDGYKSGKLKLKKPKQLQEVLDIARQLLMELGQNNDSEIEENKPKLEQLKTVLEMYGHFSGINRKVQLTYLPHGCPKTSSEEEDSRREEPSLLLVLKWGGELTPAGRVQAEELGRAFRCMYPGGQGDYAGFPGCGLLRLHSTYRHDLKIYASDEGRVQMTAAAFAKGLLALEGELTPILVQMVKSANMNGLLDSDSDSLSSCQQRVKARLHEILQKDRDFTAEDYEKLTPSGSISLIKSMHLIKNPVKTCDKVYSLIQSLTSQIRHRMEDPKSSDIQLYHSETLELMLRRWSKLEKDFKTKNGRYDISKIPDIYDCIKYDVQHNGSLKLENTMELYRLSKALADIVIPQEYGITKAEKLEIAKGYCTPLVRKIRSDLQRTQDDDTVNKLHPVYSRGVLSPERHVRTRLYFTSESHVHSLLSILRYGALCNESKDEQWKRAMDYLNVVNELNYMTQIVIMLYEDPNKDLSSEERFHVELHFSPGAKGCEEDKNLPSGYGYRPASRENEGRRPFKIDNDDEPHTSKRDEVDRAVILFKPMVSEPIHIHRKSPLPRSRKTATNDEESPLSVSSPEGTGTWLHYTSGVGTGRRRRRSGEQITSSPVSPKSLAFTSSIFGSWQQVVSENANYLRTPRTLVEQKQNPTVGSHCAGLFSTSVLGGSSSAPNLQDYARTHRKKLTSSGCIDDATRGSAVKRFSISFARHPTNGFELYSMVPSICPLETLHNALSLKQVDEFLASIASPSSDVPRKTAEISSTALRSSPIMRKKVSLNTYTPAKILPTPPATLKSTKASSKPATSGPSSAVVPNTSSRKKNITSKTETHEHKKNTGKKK
UniProt Q6P1K2: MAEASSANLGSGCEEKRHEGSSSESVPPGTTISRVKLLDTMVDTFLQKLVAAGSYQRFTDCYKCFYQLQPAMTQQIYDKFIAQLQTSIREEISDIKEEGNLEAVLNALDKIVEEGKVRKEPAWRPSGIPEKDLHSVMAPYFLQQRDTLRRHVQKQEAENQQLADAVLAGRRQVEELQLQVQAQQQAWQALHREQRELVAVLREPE
UniProt Q9UHN1: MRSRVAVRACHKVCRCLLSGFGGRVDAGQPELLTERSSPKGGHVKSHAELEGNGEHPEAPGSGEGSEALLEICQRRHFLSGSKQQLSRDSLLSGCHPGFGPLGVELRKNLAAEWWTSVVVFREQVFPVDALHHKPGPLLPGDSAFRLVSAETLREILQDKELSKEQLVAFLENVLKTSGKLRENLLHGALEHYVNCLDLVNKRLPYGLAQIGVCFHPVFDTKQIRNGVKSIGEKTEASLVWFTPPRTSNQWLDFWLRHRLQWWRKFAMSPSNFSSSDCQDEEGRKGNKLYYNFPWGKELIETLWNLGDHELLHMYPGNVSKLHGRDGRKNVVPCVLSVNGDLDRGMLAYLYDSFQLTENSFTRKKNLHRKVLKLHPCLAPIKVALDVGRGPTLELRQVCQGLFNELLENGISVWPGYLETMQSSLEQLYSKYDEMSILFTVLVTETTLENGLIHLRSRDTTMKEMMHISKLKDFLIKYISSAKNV
UniProt O15031: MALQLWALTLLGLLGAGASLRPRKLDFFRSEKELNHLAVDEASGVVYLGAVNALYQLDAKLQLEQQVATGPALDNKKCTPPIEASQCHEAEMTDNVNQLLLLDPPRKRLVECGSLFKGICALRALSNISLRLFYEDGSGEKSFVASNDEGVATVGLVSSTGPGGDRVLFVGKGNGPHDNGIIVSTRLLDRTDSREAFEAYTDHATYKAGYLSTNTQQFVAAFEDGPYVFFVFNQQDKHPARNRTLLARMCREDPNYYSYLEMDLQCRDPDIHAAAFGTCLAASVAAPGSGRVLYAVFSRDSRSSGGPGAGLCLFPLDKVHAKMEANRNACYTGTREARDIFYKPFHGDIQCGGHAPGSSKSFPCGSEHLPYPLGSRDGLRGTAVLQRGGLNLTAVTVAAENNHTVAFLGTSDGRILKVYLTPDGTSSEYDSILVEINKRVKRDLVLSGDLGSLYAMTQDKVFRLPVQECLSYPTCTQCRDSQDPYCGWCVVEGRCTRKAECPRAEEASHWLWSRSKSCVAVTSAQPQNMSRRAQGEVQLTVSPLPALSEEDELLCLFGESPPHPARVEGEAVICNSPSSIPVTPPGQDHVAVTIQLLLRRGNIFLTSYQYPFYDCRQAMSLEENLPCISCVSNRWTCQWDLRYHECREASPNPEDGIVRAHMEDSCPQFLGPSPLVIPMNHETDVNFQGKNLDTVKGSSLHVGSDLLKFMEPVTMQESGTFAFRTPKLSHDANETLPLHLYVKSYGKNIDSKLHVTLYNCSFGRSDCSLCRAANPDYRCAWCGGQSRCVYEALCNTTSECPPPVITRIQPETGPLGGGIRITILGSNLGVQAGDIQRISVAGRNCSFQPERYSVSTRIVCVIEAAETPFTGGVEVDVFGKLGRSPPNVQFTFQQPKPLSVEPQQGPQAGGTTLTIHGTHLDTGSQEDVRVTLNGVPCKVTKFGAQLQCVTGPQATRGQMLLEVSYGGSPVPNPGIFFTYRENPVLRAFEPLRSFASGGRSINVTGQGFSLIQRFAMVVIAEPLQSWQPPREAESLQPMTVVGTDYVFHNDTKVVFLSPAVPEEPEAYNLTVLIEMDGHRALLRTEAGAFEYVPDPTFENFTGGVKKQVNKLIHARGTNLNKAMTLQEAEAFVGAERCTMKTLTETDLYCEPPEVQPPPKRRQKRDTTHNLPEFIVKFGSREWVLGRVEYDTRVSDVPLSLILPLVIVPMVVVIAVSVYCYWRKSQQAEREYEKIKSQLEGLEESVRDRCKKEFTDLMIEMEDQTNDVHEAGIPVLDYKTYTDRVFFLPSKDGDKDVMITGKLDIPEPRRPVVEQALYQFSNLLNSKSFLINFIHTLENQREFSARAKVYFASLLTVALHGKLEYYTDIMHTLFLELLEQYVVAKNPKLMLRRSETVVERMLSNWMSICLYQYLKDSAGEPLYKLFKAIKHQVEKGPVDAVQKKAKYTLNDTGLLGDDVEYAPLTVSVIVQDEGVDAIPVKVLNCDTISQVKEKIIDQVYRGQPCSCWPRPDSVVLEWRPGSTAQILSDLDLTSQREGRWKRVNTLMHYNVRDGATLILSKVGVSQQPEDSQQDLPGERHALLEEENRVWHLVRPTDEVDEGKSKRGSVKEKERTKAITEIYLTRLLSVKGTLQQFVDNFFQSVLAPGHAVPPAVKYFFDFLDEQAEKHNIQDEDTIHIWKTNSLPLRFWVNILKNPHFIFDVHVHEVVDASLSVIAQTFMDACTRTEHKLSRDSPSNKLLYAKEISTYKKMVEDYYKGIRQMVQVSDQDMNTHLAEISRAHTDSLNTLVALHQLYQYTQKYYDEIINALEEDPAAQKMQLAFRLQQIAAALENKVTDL
UniProt A5A3E0, whole entry, looked up: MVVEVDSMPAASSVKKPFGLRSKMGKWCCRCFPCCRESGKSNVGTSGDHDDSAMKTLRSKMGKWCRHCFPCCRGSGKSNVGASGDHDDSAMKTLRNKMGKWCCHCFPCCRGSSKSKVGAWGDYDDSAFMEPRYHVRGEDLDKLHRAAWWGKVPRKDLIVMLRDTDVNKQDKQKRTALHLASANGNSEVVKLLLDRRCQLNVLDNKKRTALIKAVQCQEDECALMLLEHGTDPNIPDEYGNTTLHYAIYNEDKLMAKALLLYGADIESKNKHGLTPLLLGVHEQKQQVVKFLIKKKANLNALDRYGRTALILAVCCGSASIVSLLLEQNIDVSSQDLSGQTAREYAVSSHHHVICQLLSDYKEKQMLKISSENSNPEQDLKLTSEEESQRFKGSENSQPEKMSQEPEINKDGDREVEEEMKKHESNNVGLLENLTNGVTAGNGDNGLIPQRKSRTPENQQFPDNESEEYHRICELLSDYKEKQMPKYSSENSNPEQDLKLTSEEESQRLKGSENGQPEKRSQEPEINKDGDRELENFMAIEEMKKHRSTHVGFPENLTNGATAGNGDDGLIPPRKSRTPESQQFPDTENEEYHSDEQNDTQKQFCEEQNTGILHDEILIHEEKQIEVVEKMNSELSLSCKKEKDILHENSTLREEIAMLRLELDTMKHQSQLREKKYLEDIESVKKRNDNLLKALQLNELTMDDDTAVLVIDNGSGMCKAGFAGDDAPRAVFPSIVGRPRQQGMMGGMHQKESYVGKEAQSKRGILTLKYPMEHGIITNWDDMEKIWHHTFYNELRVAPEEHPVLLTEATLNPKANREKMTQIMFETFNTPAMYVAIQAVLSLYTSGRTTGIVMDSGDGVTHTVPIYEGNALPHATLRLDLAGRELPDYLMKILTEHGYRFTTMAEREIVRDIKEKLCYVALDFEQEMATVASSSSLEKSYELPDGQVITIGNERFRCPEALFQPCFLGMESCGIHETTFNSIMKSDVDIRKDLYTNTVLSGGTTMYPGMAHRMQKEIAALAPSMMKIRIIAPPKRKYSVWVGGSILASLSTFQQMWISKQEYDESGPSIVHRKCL
UniProt Q8N490: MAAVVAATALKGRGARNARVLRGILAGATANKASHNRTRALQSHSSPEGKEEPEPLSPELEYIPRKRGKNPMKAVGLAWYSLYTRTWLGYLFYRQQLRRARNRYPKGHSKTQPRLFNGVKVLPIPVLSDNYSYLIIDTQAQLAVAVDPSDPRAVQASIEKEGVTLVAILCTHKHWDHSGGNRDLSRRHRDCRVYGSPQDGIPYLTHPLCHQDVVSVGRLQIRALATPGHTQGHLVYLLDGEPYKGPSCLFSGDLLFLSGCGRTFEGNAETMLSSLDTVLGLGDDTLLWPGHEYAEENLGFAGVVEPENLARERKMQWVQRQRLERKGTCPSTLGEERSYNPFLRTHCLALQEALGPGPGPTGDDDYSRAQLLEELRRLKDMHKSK
UniProt P30405: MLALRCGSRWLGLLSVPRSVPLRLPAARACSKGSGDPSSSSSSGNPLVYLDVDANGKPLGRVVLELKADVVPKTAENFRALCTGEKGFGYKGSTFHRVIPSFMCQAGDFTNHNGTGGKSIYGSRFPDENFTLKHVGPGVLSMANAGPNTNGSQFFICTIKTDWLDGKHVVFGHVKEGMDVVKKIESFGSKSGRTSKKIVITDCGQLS

Target	log2 fold change
POFUT2 (UniProt Q9Y2G5)	inactive: 0.072
PPIA (UniProt P62937)	inactive: 0.022
POLR3C (UniProt Q9BUI4)	inactive: -0.013
POFUT1 (UniProt Q9H488)	inactive: -0.014
PPM1B (UniProt O75688)	inactive: -0.031
PPIP5K2 (UniProt O43314)	inactive: -0.077
PNPO (UniProt Q9NVS9)	inactive: 0.034
POLDIP3 (UniProt Q9BY77)	inactive: -0.057
PPFIA1 (UniProt Q13136)	inactive: -0.047
PMF1 (UniProt Q6P1K2)	inactive: 0.004
POLG2 (UniProt Q9UHN1)	inactive: 0.034
PLOD3 (UniProt O60568)	inactive: 0.011
PLXNB2 (UniProt O15031)	inactive: 0.021
PNO1 (UniProt Q9NRX1)	inactive: 0.125
PLIN3 (UniProt O60664)	inactive: -0.072
POMGNT1 isoform 2 (UniProt Q8WZA1)	inactive: -0.146
POP7 (UniProt O75817)	inactive: 0.197

Quoted from the listing:
log2 fold change with PLIN3 (UniProt O60664) is entered as inactive: -0.072
log2 fold change with POMGNT1 isoform 2 (UniProt Q8WZA1) is entered as inactive: -0.146

The listing continues.

Target	log2 fold change
PPAT (UniProt Q06203)	inactive: -0.051
PPAN isoform 3 (UniProt Q9NQ55)	inactive: 0.277
PPA2 (UniProt Q9H2U2)	inactive: -0.081
POP5 (UniProt Q969H6)	inactive: -0.01
POSTN (UniProt Q15063)	inactive: -0.129
POLDIP2 (UniProt Q9Y2S7)	inactive: 0.04
PPCDC (UniProt Q96CD2)	inactive: -0.09
POLR2H (UniProt P52434)	inactive: 0.048
POGLUT2 (UniProt Q6UW63)	inactive: -0.007
POLR3F (UniProt Q9H1D9)	inactive: -0.032
PPA1 (UniProt Q15181)	inactive: -0.096
POTEF (UniProt A5A3E0)	inactive: -0.02
POU2F1 isoform 6 (UniProt P14859)	inactive: 0.003
PNKD isoform 2 (UniProt Q8N490)	inactive: -0.065
PPIF (UniProt P30405)	inactive: 0.03
PPIE (UniProt Q9UNP9)	inactive: -0.05
